Test results taken from patent US20210071191A1.
Results are given in words; binding and its absence hold for the method and conditions named. For some assays here: In cells and extracts the contact can be indirect. Some results given as binding are weak or reduced against the parent protein; the word gives no strength. Sequences can lack the tags named with a protein.

B1: cYFP-SLR1 (protein, rice, UniProt Q7G7J6 1-625, looked up, not shown: large carriers)
chain: MKREYQEAGGSSGGGSSADMGSCKDKVMAGAAGEEEDVDELLAALGYKVRSSDMADVAQKLEQLEMAMGMGGVSAPGAADDGFVSHLATDTVHYNPSDLSSWVESMLSELNAPLPPIPPAPPAARHASTSSTVTGGGGSGFFELPAAADSSSSTYALRPISLPVVATADPSAADSARDTKRMRTGGGSTSSSSSSSSSLGGGASRGSVVEAAPPATQGAAAANAPAVPVVVVDTQEAGIRLVHALLACAEAVQQENFAAAEALVKQIPTLAASQGGAMRKVAAYFGEALARRVYRFRPADSTLLDAAFADLLHAHFYESCPYLKFAHFTANQAILEAFAGCHRVHVVDFGIKQGMQWPALLQALALRPGGPPSFRLTGVGPPQPDETDALQQVGWKLAQFAHTIRVDFQYRGLVAATLADLEPFMLQPEGEADANEEPEVIAVNSVFELHRLLAQPGALEKVLGTVHAVRPRIVTVVEQEANHNSGSFLDRFTESLHYYSTMFDSLEGGSSGQAELSPPAAGGGGGTDQVMSEVYLGRQICNVVACEGAERTERHETLGQWRNRLGRAGFEPVHLGSNAYKQASTLLALFAGGDGYRVEEKEGCLTLGWHTRPLIATSAWRVAAA
B2: Flag-tagged SLR1 (protein, rice, UniProt Q7G7J6 1-625, looked up, not shown: small tags and cut ends)
chain: B1 chain

Columns and labels:
nYFP-OsGRF4 (rice) = target: T1, nYFP-OsGRF4 (rice) (UniProt Q6ZIK5); assay: BiFC in tobacco leaf epidermal cells
T1 sequence: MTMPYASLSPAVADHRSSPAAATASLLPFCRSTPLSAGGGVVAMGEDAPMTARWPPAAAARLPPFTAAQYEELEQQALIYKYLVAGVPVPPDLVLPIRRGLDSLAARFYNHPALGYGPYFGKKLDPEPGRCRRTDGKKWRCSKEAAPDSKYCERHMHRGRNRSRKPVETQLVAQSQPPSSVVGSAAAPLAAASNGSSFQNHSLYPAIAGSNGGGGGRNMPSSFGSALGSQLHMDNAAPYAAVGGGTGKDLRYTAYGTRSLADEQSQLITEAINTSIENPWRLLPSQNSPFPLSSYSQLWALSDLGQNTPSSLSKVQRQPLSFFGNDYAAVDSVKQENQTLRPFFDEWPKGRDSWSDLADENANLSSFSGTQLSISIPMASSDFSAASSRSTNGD

HA-tagged OsGRF4 (rice) = target: T2, HA-tagged OsGRF4 (rice) (UniProt Q6ZIK5); assay: Co-IP from A. thaliana protoplasts, anti-DDDDK-tag beads, anti-Flag and anti-HA immunoblot
T2 sequence: T1 sequence

Binder	binding (nYFP-OsGRF4 (rice))	binding (HA-tagged OsGRF4 (rice))
B1	binds	
B2		binds
